Consider two sequences from publication PMC4333095.

Chains of the proteins cited; added tags and fusions are not shown. Lines headed by an entry give the natural chain unless they say otherwise; changes in a name come on top.
UniProt Q5TYW1: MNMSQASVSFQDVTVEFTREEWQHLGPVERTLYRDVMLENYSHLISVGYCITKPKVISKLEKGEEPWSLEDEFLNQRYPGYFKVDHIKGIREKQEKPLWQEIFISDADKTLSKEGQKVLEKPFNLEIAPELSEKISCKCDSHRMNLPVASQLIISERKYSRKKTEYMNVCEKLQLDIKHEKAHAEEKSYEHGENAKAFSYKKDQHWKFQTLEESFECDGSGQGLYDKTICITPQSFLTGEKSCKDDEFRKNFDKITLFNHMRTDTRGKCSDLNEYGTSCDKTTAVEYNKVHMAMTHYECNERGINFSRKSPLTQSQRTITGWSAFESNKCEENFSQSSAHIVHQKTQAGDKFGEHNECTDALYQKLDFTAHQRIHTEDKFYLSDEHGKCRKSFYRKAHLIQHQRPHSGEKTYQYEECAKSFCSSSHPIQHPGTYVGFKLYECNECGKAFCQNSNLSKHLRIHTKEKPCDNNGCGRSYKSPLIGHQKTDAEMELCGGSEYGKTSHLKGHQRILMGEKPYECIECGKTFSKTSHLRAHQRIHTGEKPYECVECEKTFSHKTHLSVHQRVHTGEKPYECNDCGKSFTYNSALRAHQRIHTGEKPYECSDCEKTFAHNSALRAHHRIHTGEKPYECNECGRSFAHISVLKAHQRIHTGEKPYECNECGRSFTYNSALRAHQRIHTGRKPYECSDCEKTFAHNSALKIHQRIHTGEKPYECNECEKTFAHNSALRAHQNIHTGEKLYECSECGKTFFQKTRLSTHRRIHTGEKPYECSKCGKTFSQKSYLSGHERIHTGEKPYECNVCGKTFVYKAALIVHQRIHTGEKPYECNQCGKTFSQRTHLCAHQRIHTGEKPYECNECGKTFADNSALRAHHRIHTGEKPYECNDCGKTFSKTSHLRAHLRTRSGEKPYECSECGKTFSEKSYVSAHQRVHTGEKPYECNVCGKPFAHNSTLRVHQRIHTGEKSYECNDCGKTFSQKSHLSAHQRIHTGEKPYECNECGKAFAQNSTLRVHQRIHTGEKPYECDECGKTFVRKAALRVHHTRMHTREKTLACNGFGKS

Results from cells or extracts need not show a direct contact. For part of these data: No signal at the amounts used counts as a negative. For part of these data: For at least one entry, the source does not settle the construct or the ends of the probe.

Series [1] concerns the target ZNF658-myc-DDK (Homo sapiens) (UniProt Q5TYW1). Briefly: competition EMSA. Particulars: 200-fold excess over probe N1; 50 fmol IRD probe, 5 ug Caco-2 protein extract, nondenaturing 5% PAGE; pH and temperature not given (ref 16); protein in a lysate after overexpression; residues 1-1059; protein details: C-terminal myc-DDK; letters put together from the description.
The target is the same in series [2]. In words: EMSA supershift. Particulars: anti-myc supershift of the specific band; 50 fmol IRD probe, 5 ug Caco-2 protein extract, nondenaturing 5% PAGE; pH and temperature not given (ref 16); protein in a lysate after overexpression; residues 1-1059; protein details: C-terminal myc-DDK; label: IRD.
Series [3] addresses ZNF658 deltaZF12-15-myc-DDK del770-904 (Homo sapiens) (UniProt Q5TYW1). In words: EMSA. Particulars: 50 fmol IRD probe, 5 ug Caco-2 protein extract, nondenaturing 5% PAGE; pH and temperature not given (ref 16); protein in a lysate after overexpression; residues 1-1059; protein details: C-terminal myc-DDK; label: IRD.

In the case of “CGAGTGTTCTGCTTGCGCAGACGCAAGGCTGGGCACTCCCCCGGGAGTGA (double strand) [50-bp ZTRE competitor (-124 to -75)]”, in series [1], the binding result is listed as “binds”.

As for “GTGGCGGGAGGAGCCTAAGGGACGAGGAAAGGCGAGTGTTCTGCTTGCGCAGACGCAAGGCTGGGCACTCCCCCGGGAGTGAGGGTTGCTGGGCCTGATGACGTGGCTTGGCAACGTCCCTACCGCCGCTGCTTCCCGGGAACCTGGCGCCGCCGGAACTGATCGCGGCCTAGTCCCGACGCGTGTGTGCTAGTGAGCCGGA (double strand) [SLC30A5 promoter probe -156 to +46]”, the binding result is listed as “binds” in series [2] and “no binding” in series [3].
